In PMC5348344 one finds binding data, which are given here for two molecules.

By UniProt entry, the sequences of proteins in these tests, tags left out.
UniProt Q04206: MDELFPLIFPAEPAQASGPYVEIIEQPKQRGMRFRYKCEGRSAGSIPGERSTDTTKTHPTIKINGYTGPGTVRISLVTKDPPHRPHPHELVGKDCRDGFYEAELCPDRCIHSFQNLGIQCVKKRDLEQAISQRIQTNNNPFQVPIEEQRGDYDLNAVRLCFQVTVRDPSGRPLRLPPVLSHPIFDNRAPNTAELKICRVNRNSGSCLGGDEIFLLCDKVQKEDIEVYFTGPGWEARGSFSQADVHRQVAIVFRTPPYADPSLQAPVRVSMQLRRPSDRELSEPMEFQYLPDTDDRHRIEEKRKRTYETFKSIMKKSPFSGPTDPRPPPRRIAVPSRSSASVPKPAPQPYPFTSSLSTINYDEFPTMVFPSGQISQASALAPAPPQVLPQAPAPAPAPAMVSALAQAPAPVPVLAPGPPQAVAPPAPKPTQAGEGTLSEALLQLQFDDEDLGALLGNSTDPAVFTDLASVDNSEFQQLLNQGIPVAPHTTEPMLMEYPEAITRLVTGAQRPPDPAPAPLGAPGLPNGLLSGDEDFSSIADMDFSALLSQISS

No constants are given. Whether binding was seen depends on the method and setting. In cells and extracts the contact can be indirect. Some entries that bind do so weakly or less than the wild type. Where a sequence is shown, tags or fusion partners need not be part of it.

This test has as its target T1, O-linked N-acetylglucosamine (O-GlcNAc) transferase (human (endogenous in OCI-LY10 and MS)) (UniProt O15294).
T1 sequence: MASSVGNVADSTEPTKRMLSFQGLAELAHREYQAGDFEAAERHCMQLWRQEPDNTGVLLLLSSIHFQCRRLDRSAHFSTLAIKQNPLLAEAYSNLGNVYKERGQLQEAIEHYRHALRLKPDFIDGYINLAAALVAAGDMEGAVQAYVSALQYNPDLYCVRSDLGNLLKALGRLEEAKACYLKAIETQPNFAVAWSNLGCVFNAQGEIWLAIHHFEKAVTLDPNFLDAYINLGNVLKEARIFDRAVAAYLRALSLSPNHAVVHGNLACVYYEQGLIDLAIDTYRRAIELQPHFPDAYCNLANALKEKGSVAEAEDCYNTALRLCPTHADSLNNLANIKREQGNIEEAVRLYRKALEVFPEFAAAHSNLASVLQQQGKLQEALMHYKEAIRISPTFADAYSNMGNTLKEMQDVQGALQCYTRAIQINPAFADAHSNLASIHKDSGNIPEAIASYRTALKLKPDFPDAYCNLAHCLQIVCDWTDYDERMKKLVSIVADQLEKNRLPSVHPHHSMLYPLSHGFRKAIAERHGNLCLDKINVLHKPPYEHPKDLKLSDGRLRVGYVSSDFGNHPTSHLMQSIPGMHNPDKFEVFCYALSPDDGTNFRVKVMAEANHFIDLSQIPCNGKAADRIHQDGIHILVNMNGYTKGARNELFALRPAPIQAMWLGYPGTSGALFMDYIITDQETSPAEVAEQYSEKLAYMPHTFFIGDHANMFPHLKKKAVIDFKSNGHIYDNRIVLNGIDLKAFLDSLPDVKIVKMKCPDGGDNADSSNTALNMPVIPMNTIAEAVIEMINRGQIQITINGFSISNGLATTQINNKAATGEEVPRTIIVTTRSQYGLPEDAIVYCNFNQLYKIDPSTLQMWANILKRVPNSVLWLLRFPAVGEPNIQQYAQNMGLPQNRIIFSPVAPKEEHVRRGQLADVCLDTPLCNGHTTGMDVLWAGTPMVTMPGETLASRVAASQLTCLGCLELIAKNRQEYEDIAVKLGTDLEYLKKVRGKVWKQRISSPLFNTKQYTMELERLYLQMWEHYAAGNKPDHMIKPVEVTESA
The test can be described thus: co-IP; anti-OGT antibody crosslinked to Dynabeads Protein A; lysates of OCI-LY10 and MS cells pre-cleared with IgG Dynabeads, incubated overnight at 4°C; washed five times with Tris-HCl pH 7.8 10 mM, EDTA 1 mM, NaCl 150 mM, NaF 1 mM, 0.5% Nonidet P-40, 0.5% glucopyranoside; Western blot.

For the molecule “nuclear factor kappa B (NF-κB)-p65 (from UniProt Q04206 1-551)”, the binding entry was “binds”.

B1: nuclear factor of activated T-cells 1 (protein, UniProt O95644 1-943)
chain: MPSTSFPVPSKFPLGPAAAVFGRGETLGPAPRAGGTMKSAEEEHYGYASSNVSPALPLPTAHSTLPAPCHNLQTSTPGIIPPADHPSGYGAALDGGPAGYFLSSGHTRPDGAPALESPRIEITSCLGLYHNNNQFFHDVEVEDVLPSSKRSPSTATLSLPSLEAYRDPSCLSPASSLSSRSCNSEASSYESNYSYPYASPQTSPWQSPCVSPKTTDPEEGFPRGLGACTLLGSPRHSPSTSPRASVTEESWLGARSSRPASPCNKRKYSLNGRQPPYSPHHSPTPSPHGSPRVSVTDDSWLGNTTQYTSSAIVAAINALTTDSSLDLGDGVPVKSRKTTLEQPPSVALKVEPVGEDLGSPPPPADFAPEDYSSFQHIRKGGFCDQYLAVPQHPYQWAKPKPLSPTSYMSPTLPALDWQLPSHSGPYELRIEVQPKSHHRAHYETEGSRGAVKASAGGHPIVQLHGYLENEPLMLQLFIGTADDRLLRPHAFYQVHRITGKTVSTTSHEAILSNTKVLEIPLLPENSMRAVIDCAGILKLRNSDIELRKGETDIGRKNTRVRLVFRVHVPQPSGRTLSLQVASNPIECSQRSAQELPLVEKQSTDSYPVVGGKKMVLSGHNFLQDSKVIFVEKAPDGHHVWEMEAKTDRDLCKPNSLVVEIPPFRNQRITSPVHVSFYVCNGKRKRSQYQRFTYLPANVPIIKTEPTDDYEPAPTCGPVSQGLSPLPRPYYSQQLAMPPDPSSCLVAGFPPCPQRSTLMPAAPGVSPKLHDLSPAAYTKGVASPGHCHLGLPQPAGEAPAVQDVPRPVATHPGSPGQPPPALLPQQVSAPPSSSCPPGLEHSLCPSSPSPPLPPATQEPTCLQPCSPACPPATGRPQHLPSTVRRDESPTAGPRLLPEVHEDGSPNLAPIPVTVKREPEELDQLYLDDVNEIIRNDLSSTSTHS
For B1, the binding entry was “binds”.
